In PubChem BioAssay AID2685 (National Center for Advancing Translational Sciences (NCATS), 2010):
Some of the results follow. The main result of the screen is listed elsewhere. These columns were measured beside it and carry no call. Compounds called inactive in the main read-out are mostly missing here. Potencies come from curve fits of mixed quality, noted in brackets.

Assay: qHTS Assay for Lipid Storage Modulators in Drosophila S3 Cells;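 on cell number change: cells counted by Cell Tracker Red CMTPX staining in the red channel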
Conditions: BODIPY lipid droplet fluorescence, 18-24 h; for cell number change: measured here: cell count max response, cells fed with added oleic acid
In short: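 Laser-scanning cytometry quantifies lipid droplet accumulation (500–530 nm total intensity; droplet/cell object ratio) in oleic acid-fed (400 uM added) Drosophila S3 cells treated with a concentration series. 20 uM Triacsin C defined 100% inhibition.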

[1] = measured here: lipid fluorescence (Fed channel) AC50, cells fed with added oleic acid
[2] = measured here: cell number channel AC50, cells fed with added oleic acid

## Cn1nc(C(=O)N2CCN(c3ccc(F)cc3)CC2)c2c1-c1ccccc1S(=O)(=O)C2
[1]
  AC50: 0.116 µM [rising, single point]

## CC1CC(C)CN(C(=O)c2ccc3nc[nH]c3c2)C1 (centres undefined)
  cell number change: 31.9%
[2]
  AC50: 10.3 µM [rising, partial curve, poor fit]

## CCCn1c(N)c(C(=O)CSc2nnc(-c3ccoc3C)n2C)c(=O)n(C)c1=O
  cell number change: -18.7%
[1]
  AC50: 0.58 µM [falling, partial curve, poor fit]

## O=C(CCc1c[nH]c2ccccc12)NCc1cccc(Cl)c1
  cell number change: -1.68%

## Clc1cccc(-c2ccc3ncnc(NCc4cccnc4)c3c2)c1
  cell number change: -58.3%
[2]
  AC50: 13 µM [falling, partial curve]
[1]
  AC50: 13 µM [falling, partial curve, poor fit]

## COc1ccc(C2CC(=O)c3c(ccc4ccccc34)N2)cc1OC (centres undefined)
  cell number change: -13.7%
[1]
  AC50: 6.51 µM [rising, single point]

## CC(=O)C1=C(C)NC(SCC(=O)Nc2nccs2)=C(C#N)C1c1ccccc1Cl (centres undefined)
  cell number change: 4.6%
[1]
  AC50: 0.517 µM [rising, partial curve, poor fit]

## Cc1ccc(NC(=O)CN(C)C(=O)c2ccccc2Sc2ccccc2C#N)cc1
[1]
  AC50: 6.51 µM [falling, single point]

## Cc1cc(Nc2cccc([N+](=O)[O-])c2)c2ccccc2n1
  cell number change: -17.9%
[1]
  AC50: 1.16 µM [falling, full curve]

## Cc1cc(C)n2nc(C(=O)OCC(=O)c3cc(C)n(CC4CCCO4)c3C)nc2n1 (centres undefined)
  cell number change: 28.1%

## Cc1ccccc1C(=O)N1CCC(C(=O)Nc2ccc(S(=O)(=O)N3CCCC3)cc2)CC1
[2]
  AC50: 4.11 µM [falling, single point]
[1]
  AC50: 6.51 µM [falling, single point]

## CCN(CC(=O)Nc1c(F)cccc1F)C(=O)c1ccc2c(=O)n3c(nc2c1)CCC3
  cell number change: -25%
[2]
  AC50: 3.66 µM [falling, full curve, poor fit]
[1]
  AC50: 6.51 µM [rising, single point]

## COc1cccc(C(=O)OCC(=O)c2ccc(Br)s2)c1OC
  cell number change: -11%
[1]
  AC50: 6.51 µM [rising, single point]

## Cc1cc(NC(=O)CSc2nc(=O)cc(N)n2-c2ccc(Cl)cc2)no1
  cell number change: 11.8%
[2]
  AC50: 1.3 µM [falling, partial curve, poor fit]

## Cc1ccc(CN(C(=O)c2ccccc2C)C2CCS(=O)(=O)C2)o1 (centres undefined)
  cell number change: -20.7%

## Cc1cc(Cl)ccc1OCC(O)CN1C(C)CCCC1C (centres undefined)
  cell number change: -35.4%
[2]
  AC50: 0.164 µM [falling, full curve]
[1]
  AC50: 2.06 µM [falling, partial curve]

## CCc1cc(=O)oc2cc(C)cc(OCC(=O)N3CCC(C(=O)NC(C)C)(c4ccccc4)CC3)c12
  cell number change: -40.6%
[2]
  AC50: 4.11 µM [falling, full curve]
[1]
  AC50: 14.6 µM [falling, partial curve]

## c1nnnn1C12CC3CC(CC(C3)C1)C2
  cell number change: 9.37%
[1]
  AC50: 18.4 µM [falling, single point]

## CC(=O)NC(=O)c1ccc(-c2ccc(Cl)cc2)o1
  cell number change: -27.1%
[1]
  AC50: 16.4 µM [falling, partial curve]

## CC(=O)NC(C)c1cc(Cl)c2cccnc2c1O (centres undefined)
  cell number change: 16.9%
[1]
  AC50: 1.16 µM [rising, single point]

## COc1ccc(Cl)c(Cn2c(NCc3ccccn3)nc3c2c(=O)n(C)c(=O)n3C)c1
  cell number change: 9.53%
[1]
  AC50: 29.1 µM [rising, single point]

## Cc1cccc(-n2ncc3c(N4CCC(C)CC4)ncnc32)c1
  cell number change: 4.4%
[2]
  AC50: 0.651 µM [falling, single point]

## CCSC1=NCCN1S(=O)(=O)c1ccc2ccccc2c1
  cell number change: -0.246%
[2]
  AC50: 6.51 µM [falling, single point]

## CC(C)Oc1ccc(S(=O)(=O)N2CCOCC2)cc1NC(=O)C1COc2ccccc2O1 (centres undefined)
  cell number change: -20.9%
[1]
  AC50: 20.6 µM [falling, single point]

## CCOc1ccc(CCNC(=O)c2ccc(Cl)c(S(=O)(=O)N3CCOCC3)c2)cc1OCC
  cell number change: 3.21%

## CCCn1c(N)c(N(CCOC)C(=O)Cc2ccc(S(=O)(=O)N3CCOCC3)s2)c(=O)[nH]c1=O
  cell number change: -18.5%

## CCOc1ccc(C(=O)Nc2cccc(C)n2)cc1
  cell number change: -55.7%
[2]
  AC50: 7.31 µM [falling, partial curve]

## Cc1cccc2sc(NNC(=O)c3ccc(S(=O)(=O)N4CCCC(C)C4)cc3)nc12 (centres undefined)
  cell number change: -19.2%
[1]
  AC50: 0.0058 µM [falling, full curve, poor fit]

## Cc1ccc(-c2nn(-c3cccc(F)c3)cc2CN(Cc2nccn2C)C(C)C)o1
  cell number change: -62.3%
[2]
  AC50: 11.6 µM [falling, partial curve]
[1]
  AC50: 10.3 µM [falling, partial curve]

## Cc1cc(-c2ccc(C)c(S(=O)(=O)NCC3CCN(Cc4ccc(F)cc4)CC3)c2)on1
  cell number change: 15.9%
[1]
  AC50: 0.366 µM [rising, partial curve, poor fit]

## Cc1ccc(S(=O)(=O)N2CCN(C(C)CC(=O)O)CC2)cc1 (centres undefined)
  cell number change: -138%
[2]
  AC50: 29.1 µM [falling, partial curve]
[1]
  AC50: 29.1 µM [falling, partial curve]

## Cc1nc(CSc2ccc(Cl)cc2)cc(N2CC(C)OC(C)C2)n1 (centres undefined)
[2]
  AC50: 1.03 µM [rising, full curve, poor fit]

## Cc1nc2ccccn2c1C(=O)N=Nc1c(O)[nH]c2ccccc12
  cell number change: 2.04%

## COc1cccc(C(=O)NC(c2ccccc2)C2CCCC2)c1 (centres undefined)
  cell number change: -0.637%
[2]
  AC50: 0.103 µM [rising, full curve, poor fit]
[1]
  AC50: 0.651 µM [rising, partial curve, poor fit]

## O=C(CN1C(=O)NC2(CCCC2)C1=O)NNC(=O)c1ccc(Cl)cc1
  cell number change: 3.55%
[1]
  AC50: 0.461 µM [rising, partial curve]

## C=C(C)CN1CCN(c2c(CCC#N)c(C)c(C#N)c3nc4ccccc4n23)CC1
  cell number change: 127%
[2]
  AC50: 0.291 µM [rising, full curve]
[1]
  AC50: 0.259 µM [rising, full curve]

## O=C(N1CCOCC1)N1CCC(n2nnc3ccccc32)CC1
  cell number change: 4.91%
[1]
  AC50: 6.51 µM [rising, single point]

## O=C(Cn1ncc2c3ccccc3n(Cc3ccccc3)c2c1=O)N1CCN(c2ncccn2)CC1
  cell number change: 23.7%
[2]
  AC50: 0.517 µM [rising, full curve, poor fit]
[1]
  AC50: 1.16 µM [rising, full curve]

## Cc1ccc(S(=O)(=O)CCC(=O)OCc2ccccc2)cc1
  cell number change: -2.15%
[2]
  AC50: 0.517 µM [falling, single point]

## CC(OC(=O)c1ccc(Br)o1)C(=O)Nc1ccc2c(c1)OCCO2 (centres undefined)
  cell number change: 17.8%
[1]
  AC50: 23.1 µM [rising, single point]

## Cc1ccc(Cn2c(NCCCn3ccnc3)nc3c2c(=O)n(C)c(=O)n3C)cc1
[2]
  AC50: 0.164 µM [rising, full curve]

## CCOc1ccc(CC(=O)Nc2sc(Cc3ccccc3)c(C)c2C(N)=O)cc1OCC
  cell number change: -22.1%
[1]
  AC50: 10.3 µM [falling, partial curve, poor fit]

## Cc1ccc(C)c(C(=O)Nc2c(C(N)=O)oc3ccccc23)c1
[2]
  AC50: 3.66 µM [rising, partial curve]
[1]
  AC50: 3.26 µM [rising, partial curve]

## CCOc1ccc(C2CC(=O)NC3=C2C(=O)CCC3)cc1 (centres undefined)
  cell number change: 15.9%
[1]
  AC50: 0.0058 µM [falling, full curve, poor fit]

## Cc1cc(OCC(O)CN)ccc1Cl (centres undefined)
  cell number change: -31.1%
[2]
  AC50: 29.1 µM [falling, single point]
[1]
  AC50: 5.8 µM [falling, full curve]

## COC(=O)c1ccc(=O)n(Cc2ccc3c(c2)OCO3)c1
  cell number change: 3.91%
[1]
  AC50: 0.82 µM [rising, full curve, poor fit]

## C1CCN(CCCNC2C3CC4CC(C3)CC2C4)C1 (centres undefined)
  cell number change: -6.52%
[2]
  AC50: 0.116 µM [rising, full curve, poor fit]

## Cc1oc(-c2ccc(Cl)cc2)[n+]([O-])c1C
  cell number change: -3.37%
[1]
  AC50: 6.51 µM [rising, single point]

## Cc1ccc2c3c1C1(C(=O)N3C(C)(C)CC2C)C(C#N)=C(N)Oc2cc(O)ccc21 (centres undefined)
  cell number change: -36.2%
[2]
  AC50: 32.6 µM [falling, single point]

## CCN(CCCNS(=O)(=O)c1cc(-c2cc(C)no2)ccc1C)Cc1ccccc1
  cell number change: 30.8%
[2]
  AC50: 0.00461 µM [rising, full curve, poor fit]

## CC(=O)N=c1ncn(CC(COC(C)=O)OC(C)=O)c2nc[nH]c12 (centres undefined)
  cell number change: -41%
[2]
  AC50: 0.0326 µM [falling, full curve]
[1]
  AC50: 25.9 µM [falling, partial curve, poor fit]

## COc1ccc(-c2nn(C)c(=O)c3ccccc23)cc1NS(C)(=O)=O
  cell number change: -2.72%
[1]
  AC50: 14.6 µM [rising, single point]

## CSc1nc2nc3c(cc2c(=O)n1-c1cccc(C)c1)COC(C)(C)C3
  cell number change: -8.24%
[1]
  AC50: 0.164 µM [falling, full curve]

## CCN1C(=O)C(NC(C)=O)c2cc(OC)ccc21 (centres undefined)
  cell number change: -23.2%
[2]
  AC50: 4.11 µM [falling, full curve, poor fit]
[1]
  AC50: 3.66 µM [falling, full curve, poor fit]

## CC1CC(C)CN(S(=O)(=O)c2ccc3c(c2)oc(=O)n3CC(=O)N2CCOCC2)C1 (centres undefined)
[2]
  AC50: 2.59 µM [rising, partial curve]
[1]
  AC50: 1.16 µM [rising, full curve, poor fit]

## CCN(CC)CCCNC(=O)C1CCN(C(=O)c2cc3sccc3n2Cc2ccc(F)cc2)CC1
  cell number change: -21.3%
[1]
  AC50: 3.26 µM [rising, full curve, poor fit]
